{"source": "PubChem BioAssay AID1259424 (University of Nebraska Medical Center, 2018)", "assay": "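Find knockdowns that reproduce the expression shifts seen after KSR1 loss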 (primary screen)", "cell system": "human HCT116 colon cancer cells", "reagents": "siRNA pool against human genes, 50 nM", "read-out": "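Six signature mRNAs by branched-DNA multiplex assay, scaled to two housekeeping genes and non-targeting median, log2; matched to mean KSR1 knockdown profile by Pearson correlation and euclidean distance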", "reading the numbers": "mean correlation with KSR1 profile: higher = expression change more like KSR1 knockdown", "note": "The whole screen tested about 14,000 reagents; this is an unselected part. 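Higher correlation or smaller distance means closer resemblance to KSR1 loss; control wells, including KSR1 knockdowns, recur on many plates.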 Further read-outs or replicates are left out here. The record does not give: the time to read-out."}
{"target gene":"MANSC1","mean correlation with KSR1 profile":0.323}
{"target gene":"LPAR3","mean correlation with KSR1 profile":0.865}
{"target gene":"SPSB1","mean correlation with KSR1 profile":-0.521}
{"target gene":"SH2B2","mean correlation with KSR1 profile":0.611}
{"target gene":"PHLDA3","mean correlation with KSR1 profile":0.221}
{"target gene":"MAN1C1","mean correlation with KSR1 profile":-0.151}
{"target gene":"NUF2","mean correlation with KSR1 profile":-0.652}
{"target gene":"PRR34","mean correlation with KSR1 profile":-0.206}
{"target gene":"DAD1","mean correlation with KSR1 profile":0.162}
{"target gene":"FAT1","mean correlation with KSR1 profile":-0.0994}
{"target gene":"FABP3","mean correlation with KSR1 profile":-0.152}
{"target gene":"PDE8A","mean correlation with KSR1 profile":-0.702}
{"target gene":"SQSTM1","mean correlation with KSR1 profile":-0.254}
{"target gene":"CTNND1","mean correlation with KSR1 profile":0.0214}
{"target gene":"TCEAL3","mean correlation with KSR1 profile":-0.322}
{"target gene":"BBS9","mean correlation with KSR1 profile":0.163}
{"target gene":"WAPL","mean correlation with KSR1 profile":-0.324}
{"target gene":"ADAMTS7","mean correlation with KSR1 profile":-0.57}
{"target gene":"INHBA","mean correlation with KSR1 profile":0.235}

Records above whose target name starts with P or p:
{"target gene":"PHLDA3","mean correlation with KSR1 profile":0.221}
{"target gene":"PRR34","mean correlation with KSR1 profile":-0.206}
{"target gene":"PDE8A","mean correlation with KSR1 profile":-0.702}
